Test results taken from the supplement of paper PMC12067093, “Discovery and optimisation of a covalent ligand for TRIM25 and its application to targeted protein ubiquitination” (Chemical Science, 2025).
The other results are listed elsewhere or left out.

Chains of the proteins cited; added tags and fusions are not shown. Lines headed by an entry give the natural chain unless they say otherwise; changes in a name come on top.
UniProt Q8TCD1: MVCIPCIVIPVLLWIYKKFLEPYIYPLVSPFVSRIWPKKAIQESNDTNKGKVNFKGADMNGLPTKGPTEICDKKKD
UniProt Q8N8R5: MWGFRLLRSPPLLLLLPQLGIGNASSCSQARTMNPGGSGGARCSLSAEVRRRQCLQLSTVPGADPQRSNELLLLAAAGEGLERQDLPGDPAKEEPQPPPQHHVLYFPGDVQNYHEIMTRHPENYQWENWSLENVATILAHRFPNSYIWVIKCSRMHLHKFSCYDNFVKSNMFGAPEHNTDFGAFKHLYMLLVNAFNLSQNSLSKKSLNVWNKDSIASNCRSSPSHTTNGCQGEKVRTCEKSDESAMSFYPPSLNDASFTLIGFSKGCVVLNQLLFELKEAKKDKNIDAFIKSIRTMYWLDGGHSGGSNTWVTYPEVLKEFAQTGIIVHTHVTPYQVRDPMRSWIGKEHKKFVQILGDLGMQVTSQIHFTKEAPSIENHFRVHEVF
UniProt Q9HB07: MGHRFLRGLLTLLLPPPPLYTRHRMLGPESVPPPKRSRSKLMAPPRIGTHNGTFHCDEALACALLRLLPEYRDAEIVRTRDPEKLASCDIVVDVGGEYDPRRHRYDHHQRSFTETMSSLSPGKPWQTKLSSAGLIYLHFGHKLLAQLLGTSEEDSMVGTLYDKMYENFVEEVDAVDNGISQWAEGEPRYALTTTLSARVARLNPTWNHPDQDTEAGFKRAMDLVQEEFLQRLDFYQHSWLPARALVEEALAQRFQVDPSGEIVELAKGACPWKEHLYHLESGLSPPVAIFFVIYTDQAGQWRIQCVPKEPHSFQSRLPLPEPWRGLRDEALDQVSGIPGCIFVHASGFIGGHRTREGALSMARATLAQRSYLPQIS
UniProt O14981: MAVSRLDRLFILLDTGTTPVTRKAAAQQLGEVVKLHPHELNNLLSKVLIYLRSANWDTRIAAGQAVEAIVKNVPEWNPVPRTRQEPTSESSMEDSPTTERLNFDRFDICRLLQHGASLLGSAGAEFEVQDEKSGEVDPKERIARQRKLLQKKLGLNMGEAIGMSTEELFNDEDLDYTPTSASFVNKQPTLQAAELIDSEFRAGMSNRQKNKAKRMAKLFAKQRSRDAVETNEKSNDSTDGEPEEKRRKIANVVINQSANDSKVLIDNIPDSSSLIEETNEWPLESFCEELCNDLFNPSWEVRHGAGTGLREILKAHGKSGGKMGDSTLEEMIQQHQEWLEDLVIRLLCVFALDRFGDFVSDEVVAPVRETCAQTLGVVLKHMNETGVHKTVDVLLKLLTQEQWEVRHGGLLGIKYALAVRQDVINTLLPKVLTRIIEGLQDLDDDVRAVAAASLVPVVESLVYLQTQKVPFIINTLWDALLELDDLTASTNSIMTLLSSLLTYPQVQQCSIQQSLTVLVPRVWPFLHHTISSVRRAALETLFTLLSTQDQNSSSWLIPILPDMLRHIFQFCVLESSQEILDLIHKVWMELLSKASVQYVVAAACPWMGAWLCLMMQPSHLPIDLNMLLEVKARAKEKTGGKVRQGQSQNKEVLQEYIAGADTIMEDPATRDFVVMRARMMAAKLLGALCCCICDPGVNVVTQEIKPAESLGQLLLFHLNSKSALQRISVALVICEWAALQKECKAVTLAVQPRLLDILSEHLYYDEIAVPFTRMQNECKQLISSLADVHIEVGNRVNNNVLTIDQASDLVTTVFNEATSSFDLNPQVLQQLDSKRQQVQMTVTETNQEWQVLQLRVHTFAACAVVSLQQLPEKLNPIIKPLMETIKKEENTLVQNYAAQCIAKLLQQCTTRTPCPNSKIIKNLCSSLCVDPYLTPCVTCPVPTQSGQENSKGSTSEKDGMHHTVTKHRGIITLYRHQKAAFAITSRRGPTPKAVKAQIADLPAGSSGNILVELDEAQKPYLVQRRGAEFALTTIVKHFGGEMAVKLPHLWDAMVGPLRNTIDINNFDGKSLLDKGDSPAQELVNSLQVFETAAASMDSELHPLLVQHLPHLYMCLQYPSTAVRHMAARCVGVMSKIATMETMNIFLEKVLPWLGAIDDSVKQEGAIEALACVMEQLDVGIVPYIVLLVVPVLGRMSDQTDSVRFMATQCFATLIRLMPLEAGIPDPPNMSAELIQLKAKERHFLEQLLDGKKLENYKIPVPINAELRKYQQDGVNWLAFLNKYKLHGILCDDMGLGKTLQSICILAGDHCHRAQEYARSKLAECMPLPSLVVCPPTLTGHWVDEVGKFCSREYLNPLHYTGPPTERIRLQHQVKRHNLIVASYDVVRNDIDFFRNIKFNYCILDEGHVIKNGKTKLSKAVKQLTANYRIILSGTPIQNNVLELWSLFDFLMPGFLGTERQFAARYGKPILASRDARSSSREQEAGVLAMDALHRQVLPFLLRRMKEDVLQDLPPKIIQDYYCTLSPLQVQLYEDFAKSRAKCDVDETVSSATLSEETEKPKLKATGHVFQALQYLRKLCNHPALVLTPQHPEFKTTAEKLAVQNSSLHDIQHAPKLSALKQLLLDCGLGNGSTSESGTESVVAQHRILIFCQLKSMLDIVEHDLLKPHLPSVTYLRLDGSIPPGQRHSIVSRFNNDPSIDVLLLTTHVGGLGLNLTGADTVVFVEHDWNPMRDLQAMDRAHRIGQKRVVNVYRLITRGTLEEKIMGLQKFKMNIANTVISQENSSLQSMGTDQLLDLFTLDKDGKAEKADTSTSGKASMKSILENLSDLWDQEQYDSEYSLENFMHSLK
UniProt Q06187: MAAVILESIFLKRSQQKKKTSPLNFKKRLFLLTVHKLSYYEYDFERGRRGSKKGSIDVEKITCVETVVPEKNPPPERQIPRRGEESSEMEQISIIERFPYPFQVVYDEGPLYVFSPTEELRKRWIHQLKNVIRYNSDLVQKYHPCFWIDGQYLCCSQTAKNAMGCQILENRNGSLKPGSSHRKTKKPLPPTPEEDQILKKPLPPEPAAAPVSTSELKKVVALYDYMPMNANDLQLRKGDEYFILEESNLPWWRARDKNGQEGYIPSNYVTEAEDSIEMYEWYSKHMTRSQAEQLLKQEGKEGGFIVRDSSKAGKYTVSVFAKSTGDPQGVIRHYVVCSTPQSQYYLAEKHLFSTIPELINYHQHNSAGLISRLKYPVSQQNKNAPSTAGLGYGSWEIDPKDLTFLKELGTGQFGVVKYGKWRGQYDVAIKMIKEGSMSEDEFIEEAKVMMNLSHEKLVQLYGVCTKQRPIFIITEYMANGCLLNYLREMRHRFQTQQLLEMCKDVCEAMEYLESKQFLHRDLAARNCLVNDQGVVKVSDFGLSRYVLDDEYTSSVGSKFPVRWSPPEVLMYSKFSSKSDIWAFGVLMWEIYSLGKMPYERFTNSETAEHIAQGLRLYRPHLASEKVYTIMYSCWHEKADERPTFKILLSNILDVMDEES
UniProt Q9NZ63: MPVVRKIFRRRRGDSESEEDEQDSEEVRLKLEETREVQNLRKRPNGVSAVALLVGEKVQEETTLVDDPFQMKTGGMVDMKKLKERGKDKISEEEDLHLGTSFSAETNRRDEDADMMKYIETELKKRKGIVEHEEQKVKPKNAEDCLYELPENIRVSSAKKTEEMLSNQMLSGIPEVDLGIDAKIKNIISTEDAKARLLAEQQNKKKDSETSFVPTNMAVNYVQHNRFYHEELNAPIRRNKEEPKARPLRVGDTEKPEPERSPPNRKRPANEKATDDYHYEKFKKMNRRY
UniProt Q8N1Q1: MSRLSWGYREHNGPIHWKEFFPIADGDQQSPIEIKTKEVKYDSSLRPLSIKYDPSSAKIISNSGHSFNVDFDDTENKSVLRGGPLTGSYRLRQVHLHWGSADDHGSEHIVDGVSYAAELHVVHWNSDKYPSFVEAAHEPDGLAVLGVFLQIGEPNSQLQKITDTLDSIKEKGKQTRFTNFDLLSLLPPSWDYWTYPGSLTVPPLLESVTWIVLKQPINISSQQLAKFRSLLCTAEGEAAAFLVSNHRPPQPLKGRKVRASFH
UniProt Q86VP6: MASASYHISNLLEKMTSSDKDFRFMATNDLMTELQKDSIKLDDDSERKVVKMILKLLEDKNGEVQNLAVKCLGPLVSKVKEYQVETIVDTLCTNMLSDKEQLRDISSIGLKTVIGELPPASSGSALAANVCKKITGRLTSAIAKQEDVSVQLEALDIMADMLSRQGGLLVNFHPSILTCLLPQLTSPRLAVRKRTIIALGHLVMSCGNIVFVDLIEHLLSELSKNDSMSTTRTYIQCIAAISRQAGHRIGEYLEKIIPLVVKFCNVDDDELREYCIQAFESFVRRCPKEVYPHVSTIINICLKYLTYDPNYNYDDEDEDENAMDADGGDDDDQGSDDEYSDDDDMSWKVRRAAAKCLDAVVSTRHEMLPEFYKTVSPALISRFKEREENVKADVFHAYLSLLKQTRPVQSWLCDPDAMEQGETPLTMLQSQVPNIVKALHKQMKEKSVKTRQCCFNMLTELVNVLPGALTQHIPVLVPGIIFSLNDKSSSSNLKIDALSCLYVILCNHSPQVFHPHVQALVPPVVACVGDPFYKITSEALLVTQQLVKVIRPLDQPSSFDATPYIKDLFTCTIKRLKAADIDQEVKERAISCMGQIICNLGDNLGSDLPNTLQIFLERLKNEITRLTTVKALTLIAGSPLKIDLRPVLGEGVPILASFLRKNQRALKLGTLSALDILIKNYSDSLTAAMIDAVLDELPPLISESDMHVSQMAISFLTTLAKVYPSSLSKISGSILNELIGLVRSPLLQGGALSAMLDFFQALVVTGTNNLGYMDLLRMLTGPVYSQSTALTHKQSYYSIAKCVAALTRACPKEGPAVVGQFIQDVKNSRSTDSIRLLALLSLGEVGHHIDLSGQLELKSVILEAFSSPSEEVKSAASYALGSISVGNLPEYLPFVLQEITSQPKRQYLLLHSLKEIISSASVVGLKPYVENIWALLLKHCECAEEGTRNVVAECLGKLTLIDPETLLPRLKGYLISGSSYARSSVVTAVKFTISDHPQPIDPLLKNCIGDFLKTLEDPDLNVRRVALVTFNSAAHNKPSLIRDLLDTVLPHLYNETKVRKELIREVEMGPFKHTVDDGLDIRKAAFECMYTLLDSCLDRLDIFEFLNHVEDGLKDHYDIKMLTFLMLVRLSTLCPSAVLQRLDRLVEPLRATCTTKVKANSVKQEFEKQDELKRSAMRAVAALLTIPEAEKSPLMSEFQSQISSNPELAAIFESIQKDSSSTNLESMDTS
UniProt Q01518, whole entry, looked up: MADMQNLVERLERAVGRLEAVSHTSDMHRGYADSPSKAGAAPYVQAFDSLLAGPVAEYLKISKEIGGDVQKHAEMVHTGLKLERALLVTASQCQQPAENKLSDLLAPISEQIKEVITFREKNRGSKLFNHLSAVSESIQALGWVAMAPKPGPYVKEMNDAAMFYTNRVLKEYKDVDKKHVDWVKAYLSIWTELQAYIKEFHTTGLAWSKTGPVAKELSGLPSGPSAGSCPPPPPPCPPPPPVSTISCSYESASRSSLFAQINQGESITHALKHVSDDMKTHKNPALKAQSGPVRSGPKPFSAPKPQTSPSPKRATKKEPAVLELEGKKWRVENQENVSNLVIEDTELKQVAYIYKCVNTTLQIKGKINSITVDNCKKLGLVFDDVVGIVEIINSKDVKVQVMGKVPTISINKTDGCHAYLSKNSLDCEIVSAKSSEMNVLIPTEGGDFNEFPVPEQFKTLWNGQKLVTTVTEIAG
UniProt O14523: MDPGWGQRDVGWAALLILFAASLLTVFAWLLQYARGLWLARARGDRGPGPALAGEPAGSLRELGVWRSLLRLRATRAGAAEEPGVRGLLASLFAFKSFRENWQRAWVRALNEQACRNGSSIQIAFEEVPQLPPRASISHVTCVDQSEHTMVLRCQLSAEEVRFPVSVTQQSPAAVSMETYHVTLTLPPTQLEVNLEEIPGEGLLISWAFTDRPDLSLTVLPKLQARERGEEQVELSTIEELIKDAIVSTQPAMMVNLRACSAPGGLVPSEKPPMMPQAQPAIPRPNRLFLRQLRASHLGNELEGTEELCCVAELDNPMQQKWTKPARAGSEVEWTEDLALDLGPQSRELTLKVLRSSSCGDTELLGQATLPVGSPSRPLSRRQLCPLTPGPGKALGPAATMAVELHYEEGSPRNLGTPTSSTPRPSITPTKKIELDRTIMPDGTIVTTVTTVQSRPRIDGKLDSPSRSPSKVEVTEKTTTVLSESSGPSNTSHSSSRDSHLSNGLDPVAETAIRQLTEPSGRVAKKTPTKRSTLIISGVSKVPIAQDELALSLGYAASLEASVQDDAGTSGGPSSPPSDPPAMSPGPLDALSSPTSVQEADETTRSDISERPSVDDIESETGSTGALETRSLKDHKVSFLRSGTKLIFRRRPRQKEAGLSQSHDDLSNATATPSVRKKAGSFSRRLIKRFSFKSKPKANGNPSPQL
UniProt Q9H3H3: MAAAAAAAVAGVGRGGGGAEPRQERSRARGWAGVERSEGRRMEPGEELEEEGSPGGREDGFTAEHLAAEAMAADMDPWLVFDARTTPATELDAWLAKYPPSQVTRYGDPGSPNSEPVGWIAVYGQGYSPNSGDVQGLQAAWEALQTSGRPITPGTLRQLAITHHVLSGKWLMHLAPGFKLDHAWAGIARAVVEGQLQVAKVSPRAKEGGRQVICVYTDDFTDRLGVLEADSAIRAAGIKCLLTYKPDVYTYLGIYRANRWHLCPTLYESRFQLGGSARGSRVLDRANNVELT

Compound: Cc1cc(ccc1-c1ccccc1)C(=O)N1CCCN(CC1)C(=O)CCl [compound 10]
Experiment: probe-labelled cysteine peptide fold change vs DMSO (competition) (log2 fold change); higher = less target engagement (more negative = stronger competition)
Conditions: THP-1, incubation time: 4 h
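Note: competitive profiling in live THP-1 cells: cysteine peptides tagged with an iodoacetamide desthiobiotin (IA-DTB) probe, intensity after compound treatment relative to DMSO-treated cells.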

Target | probe-labelled cysteine peptide fold change (10 µM) | probe-labelled cysteine peptide fold change (50 µM)
C12orf29_Q8N999_302_CLFNHFLK (UniProt Q8N999) | 0.028 | -0.656
C16orf62_Q7Z3J2_277_ETCLNWFFK (UniProt Q7Z3J2) | 0.0597 | 0.0376
C8orf82_Q6P1X6_98_YEAAFPFLSPCGR (UniProt Q6P1X6) | -0.0795 | -0.343
C18orf32_Q8TCD1_71_GPTEICDK (UniProt Q8TCD1) | 0.351 | 0.469
C17orf53_Q8N3J3_209_VVDLSGSCQK (UniProt Q8N3J3) | -0.102 | -0.152
BRIX1_Q8TDN6_158_MTGNCLK (UniProt Q8TDN6) | -0.118 | -0.0278
CAMK1D_Q8IU85_270_YTCEQAAR (UniProt Q8IU85) | -0.161 | -0.0763
C2orf69_Q8N8R5_230_SSPSHTTNGCQGEK (UniProt Q8N8R5) | -0.103 | -0.376
C3_P01024_1637_DTWVEHWPEEDECQDEENQK (UniProt P01024) | -0.437 | -0.17
C1orf112_Q9NSG2_559_EQTVHEVTTVGTAECR (UniProt Q9NSG2) | -0.156 | 0.0382
CABIN1_Q9Y6J0_1769_AGPTEPMDTSEATVCHSDLER (UniProt Q9Y6J0) | -0.0411 | 0.0496
C12orf10_Q9HB07_56_IGTHNGTFHCDEALACALLR (UniProt Q9HB07) | -0.136 | -0.185
CAMSAP1_Q5T5Y3_947_EYSQHNGEDCGDAVSK (UniProt Q5T5Y3) | -0.0676 | -0.29
BTAF1_O14981_109_LNFDRFDICR (UniProt O14981) | -0.271 | -0.536
BTK_Q06187_633_VYTIMYSCWHEK (UniProt Q06187) | -0.0117 | -0.0407
C9orf78_Q9NZ63_145_NAEDCLYELPENIR (UniProt Q9NZ63) | -0.158 | -0.119
C12orf10_Q9HB07_62_IGTHNGTFHCDEALACALLR (UniProt Q9HB07) | -0.128 | -0.413
BRD9_Q9H8M2_101_EHCDTEGEADDFDPGK (UniProt Q9H8M2) | -0.0619 | -0.179
CAMK2D_Q13557_116+127_EYYSEADASHCIQQILESVNHCHLNGIVHR (UniProt Q13557) | -0.00685 | 0.0696
BUB3_O43684_129_TPCNAGTFSQPEK (UniProt O43684) | -0.13 | 0.153
C3orf38_Q5JPI3-2_12_SGLSFSEMEGCR (UniProt Q5JPI3) | 0.0149 | 0.272

Target | probe-labelled cysteine peptide fold change (10 µM) | probe-labelled cysteine peptide fold change (50 µM)
C7orf43_Q8WVR3_305_LPGTSGCFPCPLNALEEHNFLFQLR (UniProt Q8WVR3) | -0.011 | 0.124
CALCOCO2_Q13137_443_QIFEDHVFCHSL (UniProt Q13137) | -0.333 | -0.356
BRD1_O95696_86_ENSERPPVCLR (UniProt O95696) | -0.304 | -0.256
BRD9_Q9H8M2_288_EVISCMFEPEGNACSLTDSTAEEHVLALVEHAADEAR (UniProt Q9H8M2) | 0.126 | -0.0582
BUB1_O43683_407_DAGCVNK (UniProt O43683) | -0.0681 | -0.127
CAD_P27708_986_TIMVNYNPETVSTDYDMCDR (UniProt P27708) | 0.161 | 0.356
CA13_Q8N1Q1_232_SLLCTAEGEAAAFLVSNHRPPQPLK (UniProt Q8N1Q1) | 0.0791 | 0.353
CAMK2D_Q13557_127_EYYSEADASHCIQQILESVNHCHLNGIVHR (UniProt Q13557) | 0.0584 | 0.033
BTAF1_O14981_371_ETCAQTLGVVLK (UniProt O14981) | 0.267 | -0.0208
CAND1_Q86VP6_237_TYIQCIAAISR (UniProt Q86VP6) | 0.27 | 0.119
CAP1_Q01518_375_INSITVDNCK (UniProt Q01518) | 0.0698 | 0.28
BTAF1_O14981_1522_IIQDYYCTLSPLQVQLYEDFAK (UniProt O14981) | -0.135 | 0.243
C2CD2L_O14523_385_QLCPLTPGPGK (UniProt O14523) | -0.0754 | 0.294
BZW2_Q9Y6E2_97_MTNHCVFSANEDHETIR (UniProt Q9Y6E2) | -0.189 | 0.166
CANX_P27824_160_LNKPFLFDTKPLIVQYEVNFQNGIECGGAYVK (UniProt P27824) | -0.125 | -0.0963
BTK_Q06187_165_NAMGCQILENR (UniProt Q06187) | -0.184 | -0.34
CAMK2D_Q13557_290_QETVDCLK (UniProt Q13557) | -0.354 | 0.397
BRAT1_Q6PJG6_308_LEHCPQALR (UniProt Q6PJG6) | -0.441 | -0.991
BST1_Q10588_238_IEIWVMHEIGGPNVESCGEGSMK (UniProt Q10588) | -0.336 | -0.0502
C11orf68_Q9H3H3_263_WHLCPTLYESR (UniProt Q9H3H3) | -0.0216 | -0.2
BUB1B_O60566_700_CLQIPEK (UniProt O60566) | 0.325 | 0.341

2 entries drawn at random from the list so far:
Target | probe-labelled cysteine peptide fold change (10 µM) | probe-labelled cysteine peptide fold change (50 µM)
C2CD2L_O14523_385_QLCPLTPGPGK (UniProt O14523) | -0.0754 | 0.294
BTAF1_O14981_371_ETCAQTLGVVLK (UniProt O14981) | 0.267 | -0.0208
